# The supplement of paper PMC12819154, “High-throughput peptide-centric local stability assay extends protein–ligand identification to membrane proteins, tissues and bacteria” (Nature Structural & Molecular Biology, 2025)
# Amino acid sequences for entries named in this document (tags omitted). A change or cut given only in a name is not applied to a line headed by its entry.
# UniProt O95429: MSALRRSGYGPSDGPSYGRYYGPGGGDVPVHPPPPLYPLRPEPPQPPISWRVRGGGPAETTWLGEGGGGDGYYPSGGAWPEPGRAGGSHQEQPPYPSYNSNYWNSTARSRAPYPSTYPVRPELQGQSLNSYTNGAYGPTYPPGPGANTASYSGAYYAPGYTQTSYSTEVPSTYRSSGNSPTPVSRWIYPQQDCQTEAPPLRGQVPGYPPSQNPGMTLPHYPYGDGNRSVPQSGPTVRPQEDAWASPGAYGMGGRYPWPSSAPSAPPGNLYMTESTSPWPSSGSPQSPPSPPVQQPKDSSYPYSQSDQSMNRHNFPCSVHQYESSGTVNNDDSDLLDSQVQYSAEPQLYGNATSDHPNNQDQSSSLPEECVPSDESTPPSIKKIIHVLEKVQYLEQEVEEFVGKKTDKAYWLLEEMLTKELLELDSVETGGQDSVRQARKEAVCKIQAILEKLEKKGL
# UniProt O95363: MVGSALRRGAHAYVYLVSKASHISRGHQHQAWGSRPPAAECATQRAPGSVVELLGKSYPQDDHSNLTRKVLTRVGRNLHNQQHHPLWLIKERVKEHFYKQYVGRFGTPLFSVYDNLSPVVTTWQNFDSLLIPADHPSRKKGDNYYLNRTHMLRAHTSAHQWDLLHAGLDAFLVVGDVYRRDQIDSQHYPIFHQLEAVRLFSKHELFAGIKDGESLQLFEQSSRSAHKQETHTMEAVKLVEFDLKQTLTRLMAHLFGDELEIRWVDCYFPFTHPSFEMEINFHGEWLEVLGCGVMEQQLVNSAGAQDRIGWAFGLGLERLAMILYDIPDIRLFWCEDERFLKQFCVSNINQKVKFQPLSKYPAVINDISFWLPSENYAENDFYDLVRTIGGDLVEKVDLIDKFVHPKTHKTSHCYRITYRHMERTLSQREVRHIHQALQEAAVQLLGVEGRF
# UniProt O95049: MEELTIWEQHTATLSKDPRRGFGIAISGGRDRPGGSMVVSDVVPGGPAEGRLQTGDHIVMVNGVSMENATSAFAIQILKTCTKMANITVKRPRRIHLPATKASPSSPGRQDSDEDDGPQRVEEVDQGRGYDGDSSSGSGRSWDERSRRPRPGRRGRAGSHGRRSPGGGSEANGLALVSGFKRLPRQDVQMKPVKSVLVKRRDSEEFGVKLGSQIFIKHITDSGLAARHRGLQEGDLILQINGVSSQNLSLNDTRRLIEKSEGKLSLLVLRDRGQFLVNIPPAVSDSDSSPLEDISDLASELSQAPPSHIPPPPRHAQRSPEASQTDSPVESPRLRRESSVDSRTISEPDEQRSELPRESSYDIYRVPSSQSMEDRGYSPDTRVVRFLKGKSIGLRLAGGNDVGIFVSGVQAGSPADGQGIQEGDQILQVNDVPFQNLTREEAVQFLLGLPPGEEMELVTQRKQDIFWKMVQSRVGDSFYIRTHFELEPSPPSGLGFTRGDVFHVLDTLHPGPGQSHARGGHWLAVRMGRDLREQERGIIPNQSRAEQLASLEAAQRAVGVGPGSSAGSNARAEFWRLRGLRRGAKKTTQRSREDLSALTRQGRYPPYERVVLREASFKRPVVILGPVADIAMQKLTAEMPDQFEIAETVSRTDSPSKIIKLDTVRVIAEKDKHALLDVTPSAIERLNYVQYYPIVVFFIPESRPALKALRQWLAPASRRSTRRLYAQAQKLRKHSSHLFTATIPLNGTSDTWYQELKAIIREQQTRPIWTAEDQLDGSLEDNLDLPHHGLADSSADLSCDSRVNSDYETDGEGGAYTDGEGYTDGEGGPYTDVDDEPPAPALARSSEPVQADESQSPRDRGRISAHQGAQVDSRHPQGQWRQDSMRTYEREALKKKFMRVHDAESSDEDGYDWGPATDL
# UniProt O94966: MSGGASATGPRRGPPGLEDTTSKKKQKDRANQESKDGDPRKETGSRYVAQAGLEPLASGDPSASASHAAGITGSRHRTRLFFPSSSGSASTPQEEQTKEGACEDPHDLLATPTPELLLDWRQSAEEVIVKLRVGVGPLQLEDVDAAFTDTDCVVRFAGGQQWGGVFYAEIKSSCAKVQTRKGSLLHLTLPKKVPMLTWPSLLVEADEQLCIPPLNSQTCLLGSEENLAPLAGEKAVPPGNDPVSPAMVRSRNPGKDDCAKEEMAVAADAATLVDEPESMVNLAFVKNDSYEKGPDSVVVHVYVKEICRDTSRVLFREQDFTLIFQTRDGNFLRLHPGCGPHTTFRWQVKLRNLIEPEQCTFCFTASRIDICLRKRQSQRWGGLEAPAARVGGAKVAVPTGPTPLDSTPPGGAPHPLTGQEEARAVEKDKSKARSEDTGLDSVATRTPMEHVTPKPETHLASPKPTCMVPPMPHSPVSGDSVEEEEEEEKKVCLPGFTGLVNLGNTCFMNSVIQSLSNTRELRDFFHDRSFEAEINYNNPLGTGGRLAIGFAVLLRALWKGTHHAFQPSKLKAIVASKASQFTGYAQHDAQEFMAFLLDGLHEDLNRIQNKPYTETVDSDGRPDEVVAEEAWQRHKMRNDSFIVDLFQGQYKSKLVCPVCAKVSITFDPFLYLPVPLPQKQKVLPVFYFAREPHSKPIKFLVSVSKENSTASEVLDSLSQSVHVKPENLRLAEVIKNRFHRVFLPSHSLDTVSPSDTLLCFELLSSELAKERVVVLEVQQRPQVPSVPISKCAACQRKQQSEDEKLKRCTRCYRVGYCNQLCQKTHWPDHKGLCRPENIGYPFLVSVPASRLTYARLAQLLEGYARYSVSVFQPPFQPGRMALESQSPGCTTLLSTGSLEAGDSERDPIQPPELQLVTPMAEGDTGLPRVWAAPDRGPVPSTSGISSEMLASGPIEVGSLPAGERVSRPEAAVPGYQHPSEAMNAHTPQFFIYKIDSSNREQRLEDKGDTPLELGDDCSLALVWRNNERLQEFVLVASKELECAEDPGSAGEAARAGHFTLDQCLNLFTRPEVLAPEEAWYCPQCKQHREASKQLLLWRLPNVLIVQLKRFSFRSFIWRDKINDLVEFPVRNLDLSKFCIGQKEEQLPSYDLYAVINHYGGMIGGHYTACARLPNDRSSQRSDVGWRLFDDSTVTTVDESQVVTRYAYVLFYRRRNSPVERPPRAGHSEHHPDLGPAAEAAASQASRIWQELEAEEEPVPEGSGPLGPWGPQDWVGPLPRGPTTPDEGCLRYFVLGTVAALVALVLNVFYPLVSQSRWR
# UniProt O95235: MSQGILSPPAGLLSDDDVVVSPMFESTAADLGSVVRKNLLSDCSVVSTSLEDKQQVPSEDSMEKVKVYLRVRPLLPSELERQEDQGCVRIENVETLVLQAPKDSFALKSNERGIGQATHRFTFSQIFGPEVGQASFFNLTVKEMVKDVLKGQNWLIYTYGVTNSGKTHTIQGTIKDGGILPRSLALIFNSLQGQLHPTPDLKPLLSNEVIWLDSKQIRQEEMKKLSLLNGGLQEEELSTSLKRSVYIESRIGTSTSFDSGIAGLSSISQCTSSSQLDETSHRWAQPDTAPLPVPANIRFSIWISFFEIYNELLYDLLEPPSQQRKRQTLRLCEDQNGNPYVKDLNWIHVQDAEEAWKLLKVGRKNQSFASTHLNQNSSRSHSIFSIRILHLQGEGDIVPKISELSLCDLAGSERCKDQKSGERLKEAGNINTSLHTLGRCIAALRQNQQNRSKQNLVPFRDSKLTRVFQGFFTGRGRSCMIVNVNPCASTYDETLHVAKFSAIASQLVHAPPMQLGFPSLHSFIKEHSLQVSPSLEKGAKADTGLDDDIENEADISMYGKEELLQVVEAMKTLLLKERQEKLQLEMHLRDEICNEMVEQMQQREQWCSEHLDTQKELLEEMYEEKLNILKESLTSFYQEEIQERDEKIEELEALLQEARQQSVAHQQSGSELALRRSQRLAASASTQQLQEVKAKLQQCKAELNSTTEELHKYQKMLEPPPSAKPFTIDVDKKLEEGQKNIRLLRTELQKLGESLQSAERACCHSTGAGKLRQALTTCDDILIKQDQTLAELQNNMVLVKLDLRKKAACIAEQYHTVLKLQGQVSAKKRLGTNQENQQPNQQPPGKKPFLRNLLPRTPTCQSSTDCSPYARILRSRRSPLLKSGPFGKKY
# UniProt O95521: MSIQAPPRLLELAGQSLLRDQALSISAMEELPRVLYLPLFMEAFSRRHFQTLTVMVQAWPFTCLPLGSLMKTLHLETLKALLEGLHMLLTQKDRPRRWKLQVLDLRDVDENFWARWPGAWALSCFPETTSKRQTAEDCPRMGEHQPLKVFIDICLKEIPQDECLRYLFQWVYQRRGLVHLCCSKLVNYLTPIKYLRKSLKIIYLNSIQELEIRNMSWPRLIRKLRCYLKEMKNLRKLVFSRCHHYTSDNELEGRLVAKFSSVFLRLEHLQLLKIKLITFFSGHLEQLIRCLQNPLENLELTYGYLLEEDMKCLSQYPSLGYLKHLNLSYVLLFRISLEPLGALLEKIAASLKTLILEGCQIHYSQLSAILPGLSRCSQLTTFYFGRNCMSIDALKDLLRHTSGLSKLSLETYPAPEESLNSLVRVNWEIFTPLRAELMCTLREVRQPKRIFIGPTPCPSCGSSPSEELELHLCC
# UniProt O94880: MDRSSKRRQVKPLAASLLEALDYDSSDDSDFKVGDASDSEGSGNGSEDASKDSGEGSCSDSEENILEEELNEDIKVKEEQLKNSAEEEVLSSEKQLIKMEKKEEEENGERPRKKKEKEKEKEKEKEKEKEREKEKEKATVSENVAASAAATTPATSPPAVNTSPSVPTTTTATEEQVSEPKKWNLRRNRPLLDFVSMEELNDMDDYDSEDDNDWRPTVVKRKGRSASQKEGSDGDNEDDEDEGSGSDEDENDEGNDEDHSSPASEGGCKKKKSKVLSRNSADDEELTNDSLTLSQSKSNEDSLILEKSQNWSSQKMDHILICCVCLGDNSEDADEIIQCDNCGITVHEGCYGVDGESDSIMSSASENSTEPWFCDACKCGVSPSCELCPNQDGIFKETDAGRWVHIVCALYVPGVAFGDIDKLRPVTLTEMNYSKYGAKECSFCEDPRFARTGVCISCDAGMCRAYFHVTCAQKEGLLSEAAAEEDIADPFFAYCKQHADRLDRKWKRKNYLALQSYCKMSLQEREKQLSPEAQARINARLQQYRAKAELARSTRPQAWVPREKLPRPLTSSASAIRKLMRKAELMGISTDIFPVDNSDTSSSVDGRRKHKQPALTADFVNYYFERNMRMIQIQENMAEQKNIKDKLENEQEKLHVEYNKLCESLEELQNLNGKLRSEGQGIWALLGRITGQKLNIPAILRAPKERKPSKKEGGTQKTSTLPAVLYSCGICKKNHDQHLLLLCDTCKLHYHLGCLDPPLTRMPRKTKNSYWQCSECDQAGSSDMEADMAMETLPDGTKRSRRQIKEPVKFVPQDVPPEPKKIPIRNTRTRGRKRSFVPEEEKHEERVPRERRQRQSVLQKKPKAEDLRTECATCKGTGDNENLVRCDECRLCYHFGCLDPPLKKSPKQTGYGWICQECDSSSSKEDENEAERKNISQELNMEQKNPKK
# The other results are listed elsewhere or left out. Most values lie at the level of the controls, where differences are scatter.
# Compound: CN[C@@H]1C[C@H]2O[C@@](C)([C@@H]1OC)n1c3ccccc3c3c4c(c5c6ccccc6n2c5c31)C(=O)NC4 [staurosporine]
# Assay: log2 fold change of tryptic peptide abundance, ligand vs vehicle (limited proteolysis) (log2 ratio); higher = more trypsin-susceptible (destabilized)
# Details: ligand concentration: 20 uM; sample: K562 cleared lysate; digestion: 4 min, 22 C (HT-PELSA RT4min, Orbitrap Astral)
row,Target,log2 fold change
1,"BAG4 (peptide sequence: WIYPQQDCQTEAPPLR, peptide start residue: 186) (UniProt O95429)",-0.415
2,"FARS2 (peptide sequence: TIGGDLVEKVDLIDK, peptide start residue: 387) (UniProt O95363)",0.129
3,"UniProt O95049 (peptide sequence: AVGVGPGSSAGSNAR, peptide start residue: 557)",0.269
4,"USP19 (peptide sequence: YAYVLFYR, peptide start residue: 1205) (UniProt O94966)",0.278
5,"KIF20A (peptide sequence: LKEAGNINTSLHTLGR, peptide start residue: 424) (UniProt O95235)",-0.273
6,"UniProt O95521 (peptide sequence: WKLQVLDLR, peptide start residue: 117)",0.194
7,"UniProt O94880 (peptide sequence: QLSPEAQAR, peptide start residue: 528)",-0.46

# Another view of part of the listing above:
row | Target | log2 fold change
4 | USP19 (peptide sequence: YAYVLFYR, peptide start residue: 1205) (UniProt O94966) | 0.278
5 | KIF20A (peptide sequence: LKEAGNINTSLHTLGR, peptide start residue: 424) (UniProt O95235) | -0.273
